Here are results for nine molecules from patent US20250195488A1, “MEDICINE CONTAINING VITAMIN D DERIVATIVE OR PHARMACEUTICALLY ACCEPTABLE SALT OR SOLVATE THEREOF, USED IN COMBINATION WITH IMMUNOMODULATORY SUBSTANCE” (TEEJIN PHARMA LIMITED, priority 2022, published 2025).

No dose or concentration is given here for some results.

The data set deals with rat oligodendrocyte progenitor cells. Briefly: Promotive activity of rat oligodendrocyte progenitor cell differentiation-2 (immunostaining of MBP). In kind it is cell-based. Conditions: t-test vs DMSO group. As to the method:
The promotive activity of oligodendrocyte progenitor cell (OPC) differentiation of the vitamin D derivatives was evaluated by immunostaining of MBP.
Subsequently, oligodendrocyte progenitor cell separation medium was added to the flask, and the mixture was similarly shaken for about 22 hours (37° C., 200 rpm), and the supernatant was collected to prepare oligodendrocyte progenitor cells.

As for `C[C@H](CN1CC[C@@H](C(C)(F)F)C1)[C@H]1CC[C@H]2/C(=C/C=C3C[C@@H](O)C[C@H](O)C3)CCC[C@]12C` [Compound B034, (1R,3R)-5-(2-((1R,3aS,7aR,E)-1-((S)-1-((R)-3-(1,1-difluoroethyl)pyrrolidin-1-yl)propan-2-yl)-7a-methyloctahydro-4H-inden-4-ylidene)ethylidene)cyclohexane-1,3-diol], for the setting “Test 1”, the Significant difference result is “**** (<0.0001)”. For the molecule `C=C1/C(=C\C=C2/CCC[C@]3(C)[C@@H]([C@H](C)CN4CCCCC4(C)C)CC[C@@H]23)C[C@@H](O)C[C@H]1O` [Compound I003, (1R,3R,Z)-5-(2-((1R,3aS,7aR,E)-1-((S)-1-(2,2-dimethylpiperidin-1-yl)propan-2-yl)-7a-methyloctahydro-4H-inden-4-ylidene)ethylidene)-4-methylenecyclohexane-1,3-diol], the Significant difference result (Test 9) is “**** (<0.0001)”. Consider `C=C1[C@H](O)CC(=C/C=C2\CCC[C@]3(C)[C@@H]([C@H](C)CN4CC[C@@H](CC(F)F)C4)CC[C@@H]23)C[C@H]1O` [Compound B041, (1R,3R)-5-(2-((1R,3aS,7aR,E)-1-((S)-1-((S)-3-(2,2-difluoroethyl)pyrrolidin-1-yl)propan-2-yl)-7a-methyloctahydro-4H-inden-4-ylidene)ethylidene)-2-methylenecyclohexane-1,3-diol], for which the Significant difference entry (Test 1) is listed as “**** (<0.0001)”.

As to `C=C1/C(=C\C=C2/CCC[C@]3(C)[C@@H]([C@H](C)CN4CCC[C@@H]4C(C)(C)O)CC[C@@H]23)C[C@@H](O)C[C@@H]1O` [Compound F013, (1R,3S,Z)-5-(2-((1R,3aS,7aR,E)-1-((S)-1-((R)-2-(2-hydroxypropan-2-yl)pyrrolidin-1-yl)propan-2-yl)-7a-methyloctahydro-4H-inden-4-ylidene)ethylidene)-4-methylenecyclohexane-1,3-diol], the Significant difference entry (Test 9) is reported as “**** (<0.0001)”.

On to `C=C1/C(=C\C=C2/CCC[C@]3(C)[C@@H]([C@H](C)CN4CC[C@H](C(F)F)C4)CC[C@@H]23)C[C@@H](O)C[C@@H]1O` [Compound B020, (1R,3S,Z)-5-(2-((1R,3aS,7aR,E)-1-((S)-1-((S)-3-(difluoromethyl)pyrrolidin-1-yl)propan-2-yl)-7a-methyloctahydro-4H-inden-4-ylidene)ethylidene)-4-methylenecyclohexane-1,3-diol], for which the Significant difference entry (Test 1) is “**** (<0.0001)”. For `C[C@H](CCN1CCCC[C@H]1C)[C@H]1CC[C@H]2/C(=C/C=C3C[C@@H](O)C[C@H](O)C3)CCC[C@]12C` [Compound G018, (1R,3R)-5-(2-((1R,3aS,7aR,E)-7a-methyl-1-((R)-4-((R)-2-methylpiperidin-1-yl)butan-2-yl)octahydro-4H-inden-4-ylidene)ethylidene)cyclohexane-1,3-diol], for the setting “Test 6”, the Significant difference entry is “**** (<0.0001)”. For the molecule `C[C@H](CN1CCCCC1(C)C)[C@H]1CC[C@H]2/C(=C/C=C3C[C@@H](O)C[C@H](O)C3)CCC[C@]12C` [Compound G003, (1R,3R)-5-(2-((1R,3aS,7aR,E)-1-((S)-1-(2,2-dimethylpiperidin-1-yl)propan-2-yl)-7a-methyloctahydro-4H-inden-4-ylidene)ethylidene)cyclohexane-1,3-diol], the Significant difference result (Test 3) is “**** (<0.0001)”. Consider `C[C@H](CN1CC[C@H](CC(F)F)C1)[C@H]1CC[C@H]2/C(=C/C=C3C[C@@H](O)C[C@H](O)C3)CCC[C@]12C` [Compound B042, (1R,3R)-5-(2-((1R,3aS,7aR,E)-1-((S)-1-((R)-3-(2,2-difluoroethyl)pyrrolidin-1-yl)propan-2-yl)-7a-methyloctahydro-4H-inden-4-ylidene)ethylidene)cyclohexane-1,3-diol], for which the Significant difference entry (Test 1) was “**** (<0.0001)”. As for `C[C@H](CN1CCOCC12CC2)[C@H]1CC[C@H]2/C(=C/C=C3C[C@@H](O)C[C@H](O)C3)CCC[C@]12C` [Compound G007, (1R,3R)-5-(2-((1R,3aS,7aR,E)-1-((S)-1-(7-oxa-4-azaspiro[2.5]octan-4-yl)propan-2-yl)-7a-methyloctahydro-4H-inden-4-ylidene)ethylidene)cyclohexane-1,3-diol], the Significant difference result (Test 4) is reported as “**** (<0.0001)”.
